Results are given in words; binding and its absence hold for the method and conditions named. Binding seen in cells or lysates may run through a third protein. Some binding calls cover weakened binding; strength is not graded here.
Target: T1, striatal-enriched protein tyrosine phosphatase, STEP61 (mouse (endogenous in hippocampus)) (UniProt P54830)
T1 sequence: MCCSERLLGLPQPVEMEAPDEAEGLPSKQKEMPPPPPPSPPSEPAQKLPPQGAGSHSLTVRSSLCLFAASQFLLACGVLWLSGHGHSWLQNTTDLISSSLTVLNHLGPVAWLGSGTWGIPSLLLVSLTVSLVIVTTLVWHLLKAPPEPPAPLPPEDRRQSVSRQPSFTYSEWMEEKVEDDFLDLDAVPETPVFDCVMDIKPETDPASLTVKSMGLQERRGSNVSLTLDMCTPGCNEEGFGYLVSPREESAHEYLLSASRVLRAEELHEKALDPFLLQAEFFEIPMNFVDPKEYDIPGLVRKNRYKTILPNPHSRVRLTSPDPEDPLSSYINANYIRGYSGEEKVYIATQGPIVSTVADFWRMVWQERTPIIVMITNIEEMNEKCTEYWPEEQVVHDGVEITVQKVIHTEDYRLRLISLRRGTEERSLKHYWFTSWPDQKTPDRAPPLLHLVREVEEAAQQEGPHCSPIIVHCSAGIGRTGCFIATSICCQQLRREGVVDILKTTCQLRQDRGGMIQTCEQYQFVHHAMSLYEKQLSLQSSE
Assay: co-IP; anti-STEP (23E5) immunoprecipitation from WT mouse hippocampal synaptosomal fractions lysed in co-IP buffer (20 mM Tris-HCl pH 8, NaCl, 0.5% NP-40), overnight at 4 °C, protein A/G plus agarose; blots with selective antibodies; STEP KO lysates as control

Chains of the proteins cited; added tags and fusions are not shown. Residues count along the entry.
UniProt P39688: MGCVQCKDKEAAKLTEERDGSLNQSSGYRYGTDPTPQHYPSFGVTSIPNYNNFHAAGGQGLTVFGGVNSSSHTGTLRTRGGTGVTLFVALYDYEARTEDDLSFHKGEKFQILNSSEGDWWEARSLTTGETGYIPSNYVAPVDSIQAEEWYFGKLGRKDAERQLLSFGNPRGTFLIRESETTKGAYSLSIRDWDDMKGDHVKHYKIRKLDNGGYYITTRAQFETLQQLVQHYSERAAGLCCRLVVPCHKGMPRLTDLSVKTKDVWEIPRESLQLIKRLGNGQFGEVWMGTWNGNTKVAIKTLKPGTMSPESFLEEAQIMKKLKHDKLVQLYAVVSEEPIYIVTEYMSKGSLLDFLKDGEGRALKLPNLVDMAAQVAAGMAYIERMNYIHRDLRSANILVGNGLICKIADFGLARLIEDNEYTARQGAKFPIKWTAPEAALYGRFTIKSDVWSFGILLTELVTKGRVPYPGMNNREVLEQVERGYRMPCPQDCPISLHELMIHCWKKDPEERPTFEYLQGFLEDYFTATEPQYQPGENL
UniProt Q01097, residues 27-1482: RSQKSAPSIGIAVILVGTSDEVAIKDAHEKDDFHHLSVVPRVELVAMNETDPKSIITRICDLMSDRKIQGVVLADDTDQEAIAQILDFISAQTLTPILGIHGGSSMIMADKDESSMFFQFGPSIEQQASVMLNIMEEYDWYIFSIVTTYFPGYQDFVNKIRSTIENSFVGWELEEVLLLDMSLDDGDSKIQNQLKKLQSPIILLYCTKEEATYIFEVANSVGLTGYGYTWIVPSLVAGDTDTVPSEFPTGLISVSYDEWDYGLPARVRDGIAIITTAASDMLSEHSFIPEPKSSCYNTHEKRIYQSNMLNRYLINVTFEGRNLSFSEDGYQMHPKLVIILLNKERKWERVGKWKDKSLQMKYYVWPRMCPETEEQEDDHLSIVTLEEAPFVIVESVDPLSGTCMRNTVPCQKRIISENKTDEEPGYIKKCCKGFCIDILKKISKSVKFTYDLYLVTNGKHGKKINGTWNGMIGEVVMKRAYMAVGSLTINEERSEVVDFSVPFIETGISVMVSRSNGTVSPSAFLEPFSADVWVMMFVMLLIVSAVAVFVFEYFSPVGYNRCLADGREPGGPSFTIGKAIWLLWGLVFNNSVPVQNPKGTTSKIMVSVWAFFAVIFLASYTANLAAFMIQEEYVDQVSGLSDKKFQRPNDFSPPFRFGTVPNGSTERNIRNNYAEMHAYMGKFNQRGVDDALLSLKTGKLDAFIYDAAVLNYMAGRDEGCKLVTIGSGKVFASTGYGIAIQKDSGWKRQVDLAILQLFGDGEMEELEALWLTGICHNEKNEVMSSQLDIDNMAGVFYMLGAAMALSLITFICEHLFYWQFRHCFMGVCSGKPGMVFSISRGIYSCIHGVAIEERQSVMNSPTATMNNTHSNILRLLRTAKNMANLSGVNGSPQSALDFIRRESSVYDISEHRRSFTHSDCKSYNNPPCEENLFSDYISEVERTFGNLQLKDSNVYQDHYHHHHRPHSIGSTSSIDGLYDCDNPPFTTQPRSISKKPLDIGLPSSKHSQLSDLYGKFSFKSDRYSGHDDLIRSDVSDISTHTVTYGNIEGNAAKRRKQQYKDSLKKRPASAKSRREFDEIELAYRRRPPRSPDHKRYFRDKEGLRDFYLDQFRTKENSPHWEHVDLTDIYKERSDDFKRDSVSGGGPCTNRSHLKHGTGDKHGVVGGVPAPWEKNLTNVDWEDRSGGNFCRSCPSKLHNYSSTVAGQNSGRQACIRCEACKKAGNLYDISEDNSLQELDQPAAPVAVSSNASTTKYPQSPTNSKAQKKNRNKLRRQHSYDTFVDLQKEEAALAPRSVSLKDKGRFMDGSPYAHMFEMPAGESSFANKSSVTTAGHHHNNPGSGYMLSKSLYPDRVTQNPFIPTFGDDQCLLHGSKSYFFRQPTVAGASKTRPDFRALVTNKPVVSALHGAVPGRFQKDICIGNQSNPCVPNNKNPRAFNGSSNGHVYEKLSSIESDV

binding	Substance
binds	Fyn (from UniProt P39688 1-537) (enzyme)
binds	NMDA receptor subunit GluN2A (from UniProt P35436 23-1464)
binds	NMDA receptor subunit GluN2B (from UniProt Q01097 27-1482)
